Laboratory results from article PMC8396604.
These are yes or no findings as the source states them, for the method shown. In cells and extracts the contact can be indirect. These calls come from enrichment with a bait or labelling near it, and not all partners need be listed.

Chains of the proteins cited; added tags and fusions are not shown.
UniProt P80206: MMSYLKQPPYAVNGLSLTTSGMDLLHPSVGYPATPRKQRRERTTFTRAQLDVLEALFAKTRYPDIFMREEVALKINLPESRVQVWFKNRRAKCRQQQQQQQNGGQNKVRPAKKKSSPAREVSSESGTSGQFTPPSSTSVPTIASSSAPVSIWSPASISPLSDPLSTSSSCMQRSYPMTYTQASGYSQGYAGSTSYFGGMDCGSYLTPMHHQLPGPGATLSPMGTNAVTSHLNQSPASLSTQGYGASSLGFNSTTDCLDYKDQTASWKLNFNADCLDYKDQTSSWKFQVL

B1: ARHGEF6 (protein, UniProt Q8K4I3 1-771)
chain: MNPEERLVTWLISLGVLESPKKTVCDPEEFLKSSLKNGVVLCKLINRLLPGSVEKYCLEPQTEADCIDNINDFLKGCATLQVEVFEPDDLYSGANFSKVLNTLLAVNKATEDQLSERPCGRSSSLSAATSSQTNPQVAVPSTAPEQHSEEKAEMTENGSHQLIVKARFNFKQTNEDELSVCKGDIIYVTRVEEGGWWEGTLNGRTGWFPSNYVREIKPSERPLSPKAIKGFDTAPLTKNYYTVVLQNILDTEKEYAKELQSLLVTYLRPLQSNNNLSTVEFTCLLGNFEEVCTFQQTLCQALEECSKFPENQHKVGGCLLNLMPHFKSMYLAYCANHPSAVNVLTQHSDDLERFMENQGASSPGILILTTSLSKPFMRLEKYVTLLQELERHMEDTHPDHQDILKAIIAFKTLMGQCQDLRKRKQLELQILSEPIQAWEGDDIKTLGNVIFMSQVVMQHGACEEKEERYFLLFSSVLIMLSASPRMSGFMYQGKIPIAGMVVNRLDEIEGSDCMFEITGSTVERIVVHCNNNQDFQEWMEQLNRLTKGPTSCGSLSKTSSSSCSTHSSFSSTGQPRGPLEPPQIIKPWSLSCLRPAPPLRPSAALGYKERMSYILKESSKSPKTMKKFLHKRKTERKASEEEYVIRKSTAALEEDAQILKVIEAYCTSASFQQGTRKDSVPQVLLPEEEKLIIEETRSNGQTIIEEKSLVDTVYALKDEVKELKQENKKMKQCLEEELKSRKDLEKLVRKLLKQTDECIRSESSSKTSILQ
B2: STRAP (protein, UniProt Q9Z1Z2 1-350)
chain: MAMRQTPLTCSGHTRPVVDLAFSGITPYGYFLISACKDGKPMLRQGDTGDWIGTFLGHKGAVWGATLNKDATKAATAAADFTAKVWDAVSGDELMTLAHKHIVKTVDFTQDSNYLLTGGQDKLLRIYDLNKPEAEPKEISGHTSGIKKALWCSDDKQILSADDKTVRLWDHATMTEVKSLNFNMSVSSMEYIPEGEILVITYGRSIAFHSAVSLEPIKSFEAPATINSASLHPEKEFLVAGGEDFKLYKYDYNSGEELESYKGHFGPIHCVRFSPDGELYASGSEDGTLRLWQTVVGKTYGLWKCVLPEEDSGELAKPKIGFPETAEEELEEIASENSDSIYSSTPEVKA
B3: TJP2 (protein, UniProt Q9Z0U1 1-1167)
chain: MEEVIWEQYTVTLQKDSKRGFGIAVSGGRDNPHFENGETSIVISDVLPGGPADGLLQENDRVVMVNGTPMEDVLHSFAVQQLRKSGKIAAIVVKRPRKVQVAPLQGSPPLSHDDRGFEVIEEFDGRSFRSGYSERSRHSSHDMLSHSWEGNRERGRPHQRTQSRERERSRGRSLERGLDQEDYGRSRERSRGRSLERGLDRDFVSRDHSRGRSIDRDYDRDYERSYHEAYEPDYGGGYSPSYDRRAHPETRYERSRSREHLRSRSPSPESRSRHEHKGQHDPDRPIGVLLTKSKANEEYGLRLGSQIFIKEMTRTGLATKDGNLHEGDIILKINGTVTENMSLTDARKLIEKSRGKLQLVVLRDSKQTLINIPALNDSDSEVEDISEIESNRSFSPEERRQQYSDQDYHSSTEKLKERPSSREETSGRLSRMGATPTPFKSTGDITAAGVTEASREPRYQEEGPVPQPRTAPRVFLRPSPEDEAIYGPNTKMVRFKKGDSVGLRLAGGNDVGIFVAGIQEGTSAEQEGLQEGDQILKVNTQDFRGLVREDAVLYLLEIPKGETVTILAQSRADVYRDILACGRGDSFFIRSHFECEKETPQSLAFTRGEVFRVVDTLYDGKLGHWLAVRIGNELEKGLIPNKSRAEQMASVQNAQRENAGDRADFWRMRGQRSSGGVKKNLRKSREDLAAAVSVSTKFPAYEKVLLREAGFKRPVVLFGPIADIAMERLATELPDLFQTAKTEPKDAGSEKSSGVVRLNTVRQIIEQDKHALLDVTPKAVDLLNYTQWFPIVIFFNPDSRQGVKTIRQRLSPTSNKSSRKLFDQANKLKKTCSHLFTATINVNSANDGWFGSLKDSIQQQQNEAVWVSEGKMEGMDDDAEDRMSYLTAMGADYLSCDSRLISDFEDTDGEGGAYTDNELEEPAEEPLVSSITRSSEPVQHEENIRKSSPEPRAQMRRAASRDQLRDASPPPAFKPEPPKARSQNREDSFDYSKSNLPATAGSEIPGGSTKGYPPPIAAKPAFGRPILKPSTPVPMPESEEVGESTEEQEDAPRSVLGRVKIFEKMDHKAKLQRMQELQEAQNARIEIAQKHPDIYAVPIKAPKPDAGLPPHMSSRPPEPQKAPSRLYQDTRGSYGSDPEEEEYRQQLAAHSKRGYYSQPSRYRDTEL
B4: TMPO (protein, UniProt Q61033 1-693)
chain: MPEFLEDPSVLTKDKLKSELVANNVTLPAGEQRKDVYVQLYLQHLTARNRPPLAAGANSKGPPDFSSDEEREPTPVLGSGASVGRGRGAVGRKATKKTDKPRLEDKDDLDVTELSNEELLDQLVRYGVNPGPIVGTTRKLYEKKLLKLREQGTESRSSTPLPTVSSSAENTRQNGSNDSDRYSDNDEGKKKEHKKVKSARDCVPFSELASTPSGAFFQGISFPEISTRPPLGRTELQAAKKVQTTKRDPPRETCTDTALPGKGQTHKLAPGRSLFIPSESSYDRCVEKSSSPSSQREFAARLVSAAASPSLIRETTTTYSKDIVENICRGGKSRAQPLRAEEPGVSDQSVFSSEREVLQESERSQVISPPLAQAIRDYVNSLLVQGGVGSLPGTSDSVPTLDVENICKRLSQSSYQDSESLSPPRKVPRLSEKPARGGDSGSCVAFQNTPGSEHRSSFAKSVVSHSLTTLGVEVSKPPPQHDKIEASEPSFPLHESILKVVEEEWQQIDRQLPSVACRYPVSSIEAARILSVPKVDDEILGFISEATPRAATQASSTESCDKHLDLALCRSYEAAASALQIAAHTAFVAKSLQADISQAAQIINSDPSDAQQALRILNRTYDAASYLCDAAFDEVRMSACAMGSSTMGRRYLWLKDCKISPASKNKLTVAPFKGGTLFGGEVHKVIKKRGNKQ
B5: TNS2 (protein, UniProt Q8CGB6 1-1400)
chain: MKSSGPVERLLRALGRRDSSRATSRPRKAEPHSFREKVFRKKTPVCAVCKVTIDGTGVSCRVCKVATHRKCEAKVTSSCQALPPAELRRSTAPVRRIEHLGSTKSLNHSKQRSTLPRSFSLDPLMERRWDLDLTYVTERILAAAFPARPDEQRHRGHLRELAHVLQSKHRDKYLLFNLSEKRHDLTRLNPKVQDFGWPELHAPPLDKLCSICKAMETWLSADPQHVVVLYCKGSKGKLGVIVSAYMHYSKISAGADQALATLTMRKFCEDKVATELQPSQRRYVSYFSGLLSGSIRMNSSPLFLHYVFVPVLPAFEPNTGFQPFLKIYQSMQLVYTSGVYRIAGPGPQQLCISLEPALLLKGDVMVTCYHKGGQGTDRTLVFRVQFHTCTIHGSRLTFPKDQLDEAWADERFPFQASVEFVFSSSPEKVKGNTPRNDPSVSVDYNTTEPAVRWDSYENFNQHHEDSVDGALAHTRGPLDGSPYAQVQRVPRQTPPAPSPELPPPPMLSVSSDSGHSSTLTTEHTAESPGRPPPTAAERQELDRLLGGCGVASAGRGAGRETAILDDEEQPSVGGGLHLGMYSGHRPGLSRRCSCRQGFREPCGVPNGSYYRPEGTLERRRPPYGGYEGHPQGYAEASVEKRRLCRSLSEGPYPYAPELGKPANGDFGYRPAGYREVVILEDPGVPALCSCPACEEKLALPTAALYGLRLEREAAEGWSSEVGKPLLHPVRPGHPLPLLVPACGHHHAPMPDYGCLKPPKVGEEGHEGCSYAVCSEGRYGHSGYPALVTYGYGGAVPSYCPAYGRAPHSCGSPSEGRGYPSPGAHSPRAGSVSPGSPPYLQPRKLGYEISAEDGRDKYPLSGHLASTGPLASTESPEPSWRDGSSGHSTLPRSPRDPQCSASSELSGPSTPLHTSSPVQGKESNRRQDTTRSPSLAPTQRLSPGEALPSVVQGVAEKTPELLTSSRPEQLDPSPFSQTSAPGSPNGWPQERSPGGHTNSASPRSPVPTTLPGLRHAPWQGPRGTSDSPDGSPLTPVPTQMPWLVGSPEPPQSSPTPAFPLATSYDANGPIQPPLPEKRHLPGSGQQPSPPARSTNQHVTFASPLPDVTQPPEHPLQENQSNVKFVQDTSKFWYKPHLSRDQAIALLKDKDPGAFLIRDSHSFQGAYGLALKVATPPPSAQPWKGDPSEQLVRHFLIETGPKGVKIKGCPTEPYFGSLSALVSQHSISPISLPCCLRIPSKDPLEETPEAPVPTNMSTAADLLRQGAACSVLYLTSVETESLTGPQAVAKASSAALSCSPVPVPAIVHFKVSAQGITLTDNQRKLFFRRHYPVNSITFSSTDPQDRRWTNPDGATSKIFGFVAKKPGSPWENVCHLFAELDPDQPASAIVTFITKVLLGQRK
B6: WDR70 (protein, UniProt Q3TWF6 1-657)
chain: MEHSGTSEVTGADTAGPDPQLAVTMGFTGFGKKARTFDLEAMFEQTRRTAVERSRKTLEAREKEEEMNREKELRKQIEDMEPAPSSSSAARERSQSSCRDTSSSDSESDDSSDSSDDELIGPPLPPKMVGESVTTVDEGTLGPLPPPLCEEGEDDDDDELDDEGEEDNPVQRIPDSHEITLRHGTKTVSALGLDPSGARLVTGGYDYDVKFWDFAGMDASFKAFRSLQPCECHQIKSLQYSNTGDMILVVSGSSQAKVIDRDGFEVMECIKGDQYIVDMANTKGHTAMLHTDSWHPKIKGEFMTCSNDATVRLWEVENPKKQKSVFKPRTMQGKKVIPTTCTYSRDGNLVAAACQNGSIQIWDRNLTVHPKFHYKQAHDPGTDTSCVAFSYDGNVLASRGGDDTLKLWDVRQFNKPLFSASDLPTLFPMTDCCFSPDDKLIVTGTSVQRGCGSGKLVFLERRTFQRVYEIHITDASVVRCLWHPKLNQIMVGTGNGLAKVYYDPNKSQRGAKLCVVKTQRKAKQAETLTQDYIITPHALPMFREPRQRSTRKQLEKDRLDPLKSHKPEPPVAGPGRGGRVGTHGGTLSSYIVKNIALDKTDDSNPREAILRHAKAAEDNPYWVSPAYSKTQPKTMFAQVESDDEESKNEPEWKKRKI
B7: ARHGEF7 (protein, UniProt Q9ES28 1-862)
chain: MNSAEQTVTWLITLGVLESPKKTISDPEVFLQASLKDGVVLCRLLERLLPGTIEKVYPEPRNESECLSNIREFLRACGASLRLETFDANDLYQGQNFNKVLSSLVTLNKVTADIGLGSDSVCARPSSHRIKSFDSLGSQSSHSRTSKLLQSQYRSLDMTDNTNSQLVVRAKFNFQQTNEDELSFSKGDVIHVTRVEEGGWWEGTHNGRTGWFPSNYVREIKPSEKPVSPKSGTLKSPPKGFDTTAINKSYYNVVLQNILETEHEYSKELQSVLSTYLRPLQTSDKLSSANTSYLMGNLEEISSFQQVLVQSLEECTKSPEAQQRVGGCFLSLMPQMRTLYLAYCANHPSAVSVLTEHSEDLGEFMETKGASSPGILVLTTGLSKPFMRLDKYPTLLKELERHMEDYHPDRQDIQKSMTAFKNLSAQCQEVRKRKELELQILTEPIRSWEGDDIKTLGSVTYMSQVTIQCAGSEEKNERYLLLFPNLLLMLSASPRMSGFIYQGKLPTTGMTITKLEDSENHRNAFEISGSMIERILVSCTSQQDLHEWVEHLQKQTKVTSVSNPTIKPHSVPSHTLPSHPLTPSSKHADSKPVALTPAYHTLPHPSHHGTPHTTISWGPLEPPKTPKPWSLSCLRPAPPLRPSAALCYKEDLSKSPKTMKKLLPKRKPERKPSDEEFAVRKSTAALEEDAQILKVIEAYCTSAKTRQTLNSTWQGTDLMHNHVLADDDQSSLDSLGRRSSLSRLEPSDLSEDSEYDSIWTAHSYRMGSASRSRKESAPQVLLPEEEKIIVEETKSNGQTVIEEKSLVDTVYALKDEVQELRQDNKKMKKSLEEEQRARKDLEKLVRKVLKNMNDPAWDETNL

What follows are binders tested against OTX2 homeoprotein (mouse (endogenous in adult mouse brain tissue)) (UniProt P80206) (assay: affinity purification with mass spectrometry; anti-OTX2 (ab21990) coupled to magnetic beads, lysate of pooled LV and 4V choroid plexus from four 3-month-old mice; 100 mM Tris pH 7.5, 1 mM EDTA, 100 mM NaCl, 1% NP40, 1 mM MgCl2, benzonase; 4 °C overnight; IgG co-IP as control; nano-LC-MS/MS; N = 3).

binding, binds:
B1
B2
B3
B4
B5
B6
B7
